Assay results published in PMC7468108 (Communications Biology, 2020).
The source gives many values for each of these; only a part stands here.

Protein sequences, listed by entry. Tags and fused reporters are not part of them. Residues count along the entry.
UniProt P05067, 672-713 limits assumed: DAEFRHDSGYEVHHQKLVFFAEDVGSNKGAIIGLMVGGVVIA

Molecular target: T1, pre-formed fibrils of Aβ42 (Homo sapiens, UniProt P05067)
T1 construct: purchased rPeptide (USA)
Experiment: CD spectroscopy of pre-formed Aβ42 fibrils with the tested molecules
Details: Aβ42 (10 µM) : molecule 1:5
Method: For efficient treatment of proteinopathies it may be advantageous to disassemble amyloid aggregates/fibrils which are usually already present at the time of diagnosis[75]–[77]. […] Then, various doses of the hybrid molecules were added to the pre-formed fibrils and the mixtures were incubated for additional 10 h. The process of disaggregation was monitored by ThT-binding assay, CD spectroscopy, TEM and Congo red staining (Fig. 5).
The blank was subtracted from the acquired CD spectra. For the CD study in the presence of the tryptophan-galacosylamine molecules, the spectra of hybrid molecules were also recorded separately and subtracted from the respective sample spectra. The normalized data were plotted using Origin pro 2015 software.

NC(Cc1c[nH]c2ccccc12)C(=O)NC(Cc1c[nH]c2ccccc12)C(=O)O (centres unmarked) [WW]
Normalized CD spectra (wave length 213.50): -554935.80 | Normalized CD spectra (wave length 214.00): -554928.93 | Normalized CD spectra (wave length 214.50): -552085.14 | Normalized CD spectra (wave length 215.00): -546818.62 | Normalized CD spectra (wave length 215.50): -538803.90 | Normalized CD spectra (wave length 216.00): -527793.91 | Normalized CD spectra (wave length 216.50): -515067.58 | Normalized CD spectra (wave length 217.00): -500037.64 | Normalized CD spectra (wave length 217.50): -483420.09 | Normalized CD spectra (wave length 218.00): -466017.17 | Normalized CD spectra (wave length 218.50): -449741.45 | Normalized CD spectra (wave length 219.00): -435025.94 | Normalized CD spectra (wave length 219.50): -421417.88 | Normalized CD spectra (wave length 220.00): -409259.40 | Normalized CD spectra (wave length 220.50): -400153.72 | Normalized CD spectra (wave length 221.00): -392999.00 | Normalized CD spectra (wave length 221.50): -387283.08 | Normalized CD spectra (wave length 222.00): -384427.10 | Normalized CD spectra (wave length 222.50): -381378.29 | Normalized CD spectra (wave length 223.00): -378482.47 | Normalized CD spectra (wave length 223.50): -375123.31 | Normalized CD spectra (wave length 224.00): -370804.14 | Normalized CD spectra (wave length 224.50): -364567.94 | Normalized CD spectra (wave length 225.00): -356446.10 | Normalized CD spectra (wave length 225.50): -347013.66 | Normalized CD spectra (wave length 226.00): -335572.40 | Normalized CD spectra (wave length 226.50): -322606.15 | Normalized CD spectra (wave length 227.00): -307876.71 | Normalized CD spectra (wave length 227.50): -292058.28 | Normalized CD spectra (wave length 228.00): -275601.46 | Normalized CD spectra (wave length 228.50): -259320.67 | Normalized CD spectra (wave length 229.00): -242881.21 | Normalized CD spectra (wave length 229.50): -227084.08 | Normalized CD spectra (wave length 230.00): -211838.78 | Normalized CD spectra (wave length 230.50): -197375.75 | Normalized CD spectra (wave length 231.00): -183337.85 | Normalized CD spectra (wave length 231.50): -170797.00 | Normalized CD spectra (wave length 258.50): 17161.52 | Normalized CD spectra (wave length 259.00): 7899.34 | Normalized CD spectra (wave length 259.50): -2300.94 | Normalized CD spectra (wave length 260.00): -13439.31
